No constants are given. Whether binding was seen depends on the method and setting. Binding can be weak; no strength is given.

The target of the experiment is T1, Ycf4 (UniProt P56788).
T1 sequence: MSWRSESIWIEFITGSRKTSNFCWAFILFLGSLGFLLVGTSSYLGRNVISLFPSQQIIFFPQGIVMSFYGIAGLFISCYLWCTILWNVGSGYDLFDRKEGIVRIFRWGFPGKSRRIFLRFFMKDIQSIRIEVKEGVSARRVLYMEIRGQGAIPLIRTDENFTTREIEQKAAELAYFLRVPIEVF
The experiment is described as follows: two-hybrid; split-ubiquitin yeast two-hybrid (SUY2H); baits as Cub-PLV fusions (pMetYCgate), preys (CC1, CC2 of Ycf1) as Nub fusions (pNXgate32), cotransformed into yeast strain THY.AP4; interaction selected on synthetic medium lacking Leu, Trp and His.

As for “CC1 domain of the Ycf1 protein (Arabidopsis thaliana) (domain or fragment)”, the binding entry was “binds”.

Regarding “CC2 domain of the Ycf1 protein (Arabidopsis thaliana) (domain or fragment)”, the binding result is reported as “binds”.

These data come from publication PMC4870678.
